Test results published in article PMC10671598.
These are yes or no findings as the source states them, for the method shown. Binding seen in cells or lysates may run through a third protein. Some binding calls cover weakened binding; strength is not graded here. For some of these results: Where a sequence is shown, tags or fusion partners need not be part of it.

By UniProt entry, the sequences of proteins in these tests, tags left out.
UniProt P60484: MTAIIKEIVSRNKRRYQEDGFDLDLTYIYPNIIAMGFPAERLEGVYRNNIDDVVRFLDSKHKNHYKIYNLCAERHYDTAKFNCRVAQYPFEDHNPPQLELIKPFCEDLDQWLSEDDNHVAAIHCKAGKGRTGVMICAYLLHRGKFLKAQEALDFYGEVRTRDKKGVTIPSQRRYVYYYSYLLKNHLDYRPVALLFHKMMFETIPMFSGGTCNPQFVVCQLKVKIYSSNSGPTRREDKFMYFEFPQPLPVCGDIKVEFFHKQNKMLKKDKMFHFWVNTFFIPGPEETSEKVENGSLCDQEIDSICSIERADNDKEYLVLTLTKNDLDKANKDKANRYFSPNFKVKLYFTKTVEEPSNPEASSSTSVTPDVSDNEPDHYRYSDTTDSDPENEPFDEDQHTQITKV
UniProt Q14653: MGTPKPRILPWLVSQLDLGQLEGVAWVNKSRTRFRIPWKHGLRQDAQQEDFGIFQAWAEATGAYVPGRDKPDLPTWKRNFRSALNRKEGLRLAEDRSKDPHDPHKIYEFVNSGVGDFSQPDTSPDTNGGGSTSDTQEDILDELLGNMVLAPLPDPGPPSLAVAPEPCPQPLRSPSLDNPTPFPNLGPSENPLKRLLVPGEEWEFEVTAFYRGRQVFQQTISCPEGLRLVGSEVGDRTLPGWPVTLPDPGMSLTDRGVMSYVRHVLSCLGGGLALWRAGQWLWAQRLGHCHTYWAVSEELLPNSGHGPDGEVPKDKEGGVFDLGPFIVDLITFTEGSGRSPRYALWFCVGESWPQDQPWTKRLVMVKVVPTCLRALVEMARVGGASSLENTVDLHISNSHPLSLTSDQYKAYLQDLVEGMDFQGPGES

How the values were obtained:
RNF138-Flag (human) = biological target: T1, RNF138-Flag (human) (UniProt Q8WVD3); test: co-IP; HEK293T transfected with the indicated plasmids for 24 h; lysis buffer 20 mM Tris pH 7.5, 150 mM NaCl, 1% Triton X-100, 1 mM EDTA; Flag beads or the indicated antibody with protein A/G agarose, 4 °C overnight; immunoblot; for PTEN-IRF3 also with myc-RNF138 co-expressed or in RNF138-KO cells
T1 sequence: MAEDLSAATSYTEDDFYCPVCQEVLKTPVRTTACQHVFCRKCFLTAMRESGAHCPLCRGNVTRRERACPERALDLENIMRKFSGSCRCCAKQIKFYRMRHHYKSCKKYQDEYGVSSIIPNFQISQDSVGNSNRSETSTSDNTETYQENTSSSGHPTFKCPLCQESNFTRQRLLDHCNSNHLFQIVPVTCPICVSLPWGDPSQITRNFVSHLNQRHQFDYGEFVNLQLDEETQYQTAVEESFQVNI

PTEN-Flag = PTEN-Flag (UniProt P60484); test: as above
[1] = biological target: T2, RNF138 (endogenous, HEK293T) (human (endogenous in HEK293T)) (UniProt Q8WVD3); test: co-IP; endogenous immunoprecipitation from HEK293T cells infected with SeV for the indicated times; same lysis and washing as for the transfected cells
T2 sequence: T1 sequence

Row | Substance | binding (RNF138-Flag (human)) | binding (PTEN-Flag) | binding [1]
1 | HA-IRF3 (from UniProt Q14653 1-427) | binds | binds | –
2 | IRF3 (endogenous, HEK293T) (from UniProt Q14653 1-427) | binds | – | binds
